Results: patent US12298315B2, “Systems and methods to identify and treat subjects at risk for obstetrical complications” (Wayne State University, priority 2014, dated 2025)
At least one structure is not confirmed: it was looked up by name or label, or the drawing left a doubt.

What was measured:
animal models of PE = conditions: cited from earlier work
[1] = tested on: angiogenic and anti-angiogenic imbalance; assay: Case report: pravastatin treatment of a pregnant subject with recurrent pregnancy loss, pregnancy outcome; format: in vivo, human; conditions: pravastatin 20 mg once daily from 17+4 weeks

CC[C@H](C)C(=O)O[C@H]1C[C@H](O)C=C2C=C[C@H](C)[C@H](CC[C@@H](O)C[C@@H](O)CC(=O)O)[C@H]21 [pravastatin, Pravastatin]
Imbalances in angiogenic/anti-angiogenic factors (animal models of PE): reverse imbalances in angiogenic/anti-angiogenic factors
Recurrent FD (fetal death) ([1]; one pregnant subject with history of four pregnancy losses): Prevents Recurrent FD
Angiogenic and anti-angiogenic imbalance ([1]; one pregnant subject): can reverse an angiogenic and anti-angiogenic imbalance
